# Results of single-concentration screens

The values are deposited in ChEMBL (CHEMBL3988442, “University of Dundee, Small-Polar-MMV Screening Library” (2021)).

Values are the deposited “Percent Effect”, in %.
How 0% and 100% were set is not recorded. Most values in the screen are low, and negative values occur.
Compounds were drawn at random from those tested, without regard to their results.

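Whole-parasite assay of Trypanosoma brucei over 72 hours; the read-out is not stated. Tested at 30 µM. The record gives no direction; compounds that gave an IC50 in retests scored well above the rest, so higher reads as stronger inhibition. Values scatter widely below zero; nearly all retest evidence comes from the higher of the two concentrations used. Size under these conditions: about 64,000 compounds, about 940 of them at 50% or above in at least one test.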

| SMILES | percent effect |
|---|---|
| `Cc1cnn(CC2CCCCN2Cc2cc(C)on2)c1` (stereo not drawn) | -14.17% |
| `O=C(O)C(F)(F)F.O=C(O)C(F)(F)F.[H][C@@]12CCCO[C@]1([H])[C@@H](OCc1ccncc1)CN2Cc1scnc1C` | -257.9% |
| `CCc1nccn1CCC(=O)N1CC[C@@H](c2sccc2C)[C@H](O)C1` | -2.284% |
| `c1cnc(-c2nc(C3CCOC3)no2)cn1` (stereo not drawn) | -19.3% |
| `O=C(O)C(F)(F)F.[H][C@@]12COC[C@]1(CNS(=O)(=O)C1CC1)CN(c1ncc(F)cn1)C2` | -19.46% |
| `c1cnc(N2CCC(OCC3CCCCO3)CC2)nc1` (stereo not drawn) | -97.29% |
| `COc1cccc(OCC(=O)NS(=O)(=O)c2cc(F)ccc2F)c1` | -33.49% |
| `O=C(O)C(F)(F)F.[H][C@@]12C[C@@H](C(=O)NC(C)C)C[C@@]1([H])N(CC1CC1)CCO2` | -31.55% |
| `Cc1cc(C(=O)N2CCCC2c2noc(C)n2)[nH]n1` (stereo not drawn) | -1.269% |
| `Cc1ccccc1C(C)NC(=O)CN1CCN(Cc2ccc(Br)s2)CC1` (stereo not drawn) | -40.52% |
| `Cc1ccc2c(c1)C(N1CCOCC1)CC21CCNCC1` (stereo not drawn) | -11.85% |
| `O=C(COc1ccc(C(F)(F)F)cc1)NS(=O)(=O)c1cccnc1` | -16.08% |
| `CCc1cnccc1C(=O)NC1CCN(C(=O)C2CCCCC2)CC1` | -15.38% |
| `Cc1ccc(C2CCCN(C(=O)c3cnn(C)c3)C2)nc1` (stereo not drawn) | -28.84% |
| `CN1CC2(CCCN(Cc3cccc(Oc4ccccc4)c3)C2)OC1=O` (stereo not drawn) | -18.68% |
| `O=S1(=O)CCC(c2nc(-c3cccc(Br)c3)no2)C1` (stereo not drawn) | -12.7% |
| `[H][C@]12CC[C@]([H])(CN(Cc3ccc(F)cc3)C1)N(Cc1snnc1C)C2` | -34.67% |
| `CCCC(=O)N(CCCN1CCOCC1)c1nc2c(F)cccc2s1.Cl` | 24.42% |
| `O=C1CC(c2ccc(C(=O)O)cc2)c2ncn(-c3ccccc3F)c2N1` (stereo not drawn) | -21.52% |
| `CC(C)(C)CC(=O)Nc1ccccc1SCC(N)=O` | -58.36% |
| `CCCOC(=O)N1CCCn2nc(C(=O)Nc3ccccc3)cc2C1` | -4.027% |
| `CCOc1ccc(N2CCCN=C2NC(=O)c2ccccc2C)cc1` | -17.45% |
| `Cc1ccsc1[C@@H]1CCN(C(=O)c2cc3ccccc3[nH]2)C[C@H]1O` | -29.67% |
| `CCC(CNC(=O)c1nc(=O)[nH][nH]1)Oc1ccccc1C(F)(F)F` (stereo not drawn) | -41.22% |
| `O=C(Nc1ccc2ncccc2c1)C1CC(=O)N(Cc2ccccn2)C1` (stereo not drawn) | 24.74% |
| `O=C(O)C(F)(F)F.c1cc(COC[C@H]2CCC[C@]23CNCCO3)ccn1` | -67.43% |
| `COc1ccc(CSc2nnc(N)n2C2CC2)cc1F` | -20.62% |
| `Cc1cccc2ncn(C(C)Cn3cccn3)c(=O)c12` (stereo not drawn) | 11.02% |
| `COCC1CCCN(C(=O)c2ccc(NC(=O)CC(C)C)c(C)c2)C1` (stereo not drawn) | -13.43% |
| `CC(CNS(N)(=O)=O)Oc1ccc(Cl)cc1` (stereo not drawn) | 2.66% |
| `Nc1cc(-c2c[nH]nc2C2CCCN2CCCc2ccccc2)ccn1` (stereo not drawn) | 11.73% |
| `CNc1cncc(C2CCCN2C(=O)c2ccc3c(c2)CCC3)n1` (stereo not drawn) | 15.16% |
| `CCc1nc2n(n1)CC(NCc1cnn(-c3ccccc3)n1)CC2` (stereo not drawn) | 3.314% |
| `COCCNC(=O)c1cc2c(nc1O)CC(c1cccs1)CC2=O` (stereo not drawn) | -33.88% |
| `Cc1ccc(-c2ccnc(NC(C)c3ncc[nH]3)n2)c(C)n1` (stereo not drawn) | -3.061% |
| `CCCN1CCC2(CC1)COc1ccccc1S(=O)(=O)N(CC1CC1)C2.O=C(O)C(F)(F)F` | -12.2% |
| `CN(C)c1ccnc(C2CCCN2)n1.Cl` (stereo not drawn) | -2.251% |
| `CCN(CC)C(=O)CCNC(=O)c1ccccc1N1CCOCC1` | -38.16% |
| `NS(=O)(=O)N1CCc2ccc(NC(=O)Cc3ccccc3F)cc21` | -36.47% |
| `Cc1oc(-c2cccs2)nc1C(=O)N(C)C1(C#N)CCC1` | -22.91% |
| `COCCNc1c(C#N)c2c(c3nncn13)CN(C)CC2` | -10.68% |
| `CC1(NC(=O)Cc2csc(-c3ccccc3Cl)n2)CCS(=O)(=O)C1` (stereo not drawn) | -21.6% |
| `CN(C)CCOCC1CN(C(=O)c2cccn2C)Cc2ccnn2C1.O=C(O)C(F)(F)F.O=C(O)C(F)(F)F` (stereo not drawn) | -14.96% |
| `O=C(C1CCOCC1)N1CC[C@H](O)[C@@H]1Cc1cccnc1` | -94.39% |
| `O=C(c1ncncc1Cl)N1CCN(c2ccc(Cl)cc2)CC1` | -3.989% |
| `CN(CC1(O)CCN(c2ccnc3ccncc23)CC1)C(=O)CCN` | 2.256% |
| `Cc1ccsc1CNC(=O)c1ccc(N2CCNC2=O)cc1` | -17.39% |
| `Cn1ccnc1CN1CCCN(C(=O)c2cccc(CC#N)c2)CC1` | -5.15% |
| `CC(C)c1cc(C(=O)N2Cc3ccccc3CC2C(=O)O)nn1C` (stereo not drawn) | -27.32% |
| `Cc1ccc(S(C)(=O)=O)cc1C(=O)NS(=O)(=O)c1cccs1` | -1.699% |
| `N[C@H]1CN(C(=O)c2ccc3[nH]c(CO)nc3c2)C[C@@H]1c1ccccc1` | -16.38% |
| `COCCc1noc(CN2CCCC2Cn2cccn2)n1` (stereo not drawn) | -8.635% |
| `CC(C)c1nc(C2CCCN2CC(=O)Nc2cccnc2)no1` (stereo not drawn) | 4.137% |
| `CCc1nnc(CNC2CCN(c3ncnc4c(C)csc34)CC2)s1` | -0.5566% |
| `CCN(Cc1noc(C2CCC2)n1)C(=O)CCc1cc2n(n1)CCNC2` | -17.31% |
| `Cc1cc(C)n(CC2CN(CCOc3cccc(C#N)c3)CCO2)n1` (stereo not drawn) | 3.143% |
| `CO[C@@H]1CCN(S(=O)(=O)c2cn(C)cn2)[C@H]1Cc1ccccc1` | 23.26% |
| `NCC1(c2cccc(C(F)(F)F)c2)CCCCC1` | 0.6804% |
| `COCC(=O)N1CCCC(c2csc(NC(C)=O)n2)C1` (stereo not drawn) | -3.793% |
| `Cc1cc(N2CCOCC(Cc3ccc4[nH]ccc4c3)C2)ncn1` (stereo not drawn) | 12.74% |
| `c1ccc(CN(Cc2ncc[nH]2)Cc2nccs2)cc1` | -1.017% |
| `Cc1nn(C)c(C)c1S(=O)(=O)N(CC(N)=O)CC(C)C` | 0.266% |
| `COc1ccc(C)cc1-c1csc(N)c1C#N` | -12.3% |
| `O=C(O)[C@@H]1CN(C(=O)c2ccc(F)c(F)c2)C[C@H]1c1cccc(F)c1` | -68.14% |
| `Cc1noc(C)c1CN(C)C(=O)NC1CCC(O)CC1` (stereo not drawn) | 3.882% |
| `O=C(CCc1ccccc1)NCC1CCN(Cc2ccccc2)CC1` | 14.64% |
| `Cc1ccc(-c2nc(CN3CCN(S(=O)(=O)N(C)C)CC3)cs2)o1` | -11.49% |

Repeated from the top, 5 entries:

* Cc1cnn(CC2CCCCN2Cc2cc(C)on2)c1 (stereo not drawn) | -14.17%
* O=C(O)C(F)(F)F.O=C(O)C(F)(F)F.[H][C@@]12CCCO[C@]1([H])[C@@H](OCc1ccncc1)CN2Cc1scnc1C | -257.9%
* CCc1nccn1CCC(=O)N1CC[C@@H](c2sccc2C)[C@H](O)C1 | -2.284%
* c1cnc(-c2nc(C3CCOC3)no2)cn1 (stereo not drawn) | -19.3%
* O=C(O)C(F)(F)F.[H][C@@]12COC[C@]1(CNS(=O)(=O)C1CC1)CN(c1ncc(F)cn1)C2 | -19.46%